From PMC5989226 (Nature Communications, 2018)

T1: YFP-AHG1 (in transgenic Arabidopsis YFP-AHG1ox plants) (Arabidopsis) (UniProt Q9FLI3)
T1 sequence: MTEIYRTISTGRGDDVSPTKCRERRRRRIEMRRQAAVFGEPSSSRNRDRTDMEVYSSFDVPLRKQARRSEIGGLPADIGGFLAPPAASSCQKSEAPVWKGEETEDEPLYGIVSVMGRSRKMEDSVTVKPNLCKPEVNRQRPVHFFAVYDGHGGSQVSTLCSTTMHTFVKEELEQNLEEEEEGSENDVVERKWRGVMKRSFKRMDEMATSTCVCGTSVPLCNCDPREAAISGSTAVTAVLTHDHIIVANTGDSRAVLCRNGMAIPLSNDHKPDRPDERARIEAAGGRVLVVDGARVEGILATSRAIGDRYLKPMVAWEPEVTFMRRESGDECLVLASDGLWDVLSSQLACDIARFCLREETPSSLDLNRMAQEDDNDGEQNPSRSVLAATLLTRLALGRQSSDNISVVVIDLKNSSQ

B1: DELAY OF …ON1 (DOG1), endogenous (protein, UniProt A0SVK0 1-291)
chain: MGSSSKNIEQAQDSYLEWMSLQSQRIPELKQLLAQRRSHGDEDNDNKLRKLTGKIIGDFKNYAAKRADLAHRCSSNYYAPTWNSPLENALIWMGGCRPSSFFRLVYALCGSQTEIRVTQFLRNIDGYESSGGGGGASLSDLSAEQLAKINVLHVKIIDEEEKMTKKVSSLQEDAADIPIATVAYEMENVGEPNVVVDQALDKQEEAMARLLVEADNLRVDTLAKILGILSPVQGADFLLAGKKLHLSMHEWGTMRDRRRRDCMVDTEVIFDACTTVNSGPRPTETTNNERN
B2: ABI FIVE BINDING PROTEIN 2 (AFP2), endogenous (protein, UniProt Q9LMX5 1-348)
chain: MGEASRQQRAWNREMTVTTNLSLDIDKYPRDLLRGFMSENGGGRVFHGGETNCDDESTIELNLGLSLGGRFGVDKTPRKLKRSSSVLDTVPFNDSTVAEPENYTVGLERTTSLPAEMEEEWRKRKEMQSLRRMEAKRRRCEKQSFRVGNSDDQTVSFENERWVTASKSGFLQRHLVSSNRQVCGVDSDGGGATGGGSSSSLSELDNKNQQGSSNSCNDERSPKIVAGCSSNSGSQGTERPSVTRANKVNENENEKRVRSEDSVDRKGKGMATSTGLVDMPCVFTKGDGPNGRRVDGILYKYGKGEEVRIMCICHGSFLTPAEFVKHGGGGDVDRPLRHIVVNTSSSTF
B3: TOPLESS (TPL), endogenous (protein, UniProt Q94AI7 1-1131)
chain: MSSLSRELVFLILQFLDEEKFKETVHKLEQESGFFFNMKYFEDEVHNGNWDEVEKYLSGFTKVDDNRYSMKIFFEIRKQKYLEALDKHDRPKAVDILVKDLKVFSTFNEELFKEITQLLTLENFRENEQLSKYGDTKSARAIMLVELKKLIEANPLFRDKLQFPTLRNSRLRTLINQSLNWQHQLCKNPRPNPDIKTLFVDHSCGPPNGARAPSPVNNPLLGGIPKAGGFPPLGAHGPFQPTASPVPTPLAGWMSSPSSVPHPAVSAGAIALGGPSIPAALKHPRTPPTNASLDYPSADSEHVSKRTRPMGISDEVNLGVNMLPMSFSGQAHGHSPAFKAPDDLPKTVARTLSQGSSPMSMDFHPIKQTLLLVGTNVGDIGLWEVGSRERLVQKTFKVWDLSKCSMPLQAALVKEPVVSVNRVIWSPDGSLFGVAYSRHIVQLYSYHGGEDMRQHLEIDAHVGGVNDISFSTPNKQLCVITCGDDKTIKVWDAATGVKRHTFEGHEAPVYSVCPHYKENIQFIFSTALDGKIKAWLYDNMGSRVDYDAPGRWCTTMAYSADGTRLFSCGTSKDGESFIVEWNESEGAVKRTYQGFHKRSLGVVQFDTTKNRYLAAGDDFSIKFWDMDAVQLLTAIDGDGGLQASPRIRFNKEGSLLAVSGNENVIKIMANSDGLRLLHTFENISSESSKPAINSIAAAAAAAATSAGHADRSANVVSIQGMNGDSRNMVDVKPVITEESNDKSKIWKLTEVSEPSQCRSLRLPENLRVAKISRLIFTNSGNAILALASNAIHLLWKWQRNERNATGKATASLPPQQWQPASGILMTNDVAETNPEEAVPCFALSKNDSYVMSASGGKISLFNMMTFKTMATFMPPPPAATFLAFHPQDNNIIAIGMDDSTIQIYNVRVDEVKSKLKGHSKRITGLAFSNVLNVLVSSGADAQLCVWNTDGWEKQRSKVLPLPQGRPNSAPSDTRVQFHQDQAHFLVVHETQLAIYETTKLECMKQWAVRESLAPITHATFSCDSQLVYASFMDATVCVFSSANLRLRCRVNPSAYLPASLSNSNVHPLVIAAHPQEPNMFAVGLSDGGVHIFEPLESEGKWGVAPPAENGSASGAPTAPSVGASASDQPQR
B4: FVE/MSI4, endogenous (protein, UniProt O22607 1-507)
chain: MESDEAAAVSPQATTPSGGTGASGPKKRGRKPKTKEDSQTPSSQQQSDVKMKESGKKTQQSPSVDEKYSQWKGLVPILYDWLANHNLVWPSLSCRWGPQLEQATYKNRQRLYLSEQTDGSVPNTLVIANCEVVKPRVAAAEHISQFNEEARSPFVKKYKTIIHPGEVNRIRELPQNSKIVATHTDSPDVLIWDVETQPNRHAVLGAANSRPDLILTGHQDNAEFALAMCPTEPFVLSGGKDKSVVLWSIQDHITTIGTDSKSSGSIIKQTGEGTDKNESPTVGPRGVYHGHEDTVEDVAFSPTSAQEFCSVGDDSCLILWDARTGTNPVTKVEKAHDADLHCVDWNPHDDNLILTGSADNTVRLFDRRKLTANGVGSPIYKFEGHKAAVLCVQWSPDKSSVFGSSAEDGLLNIWDYDRVSKKSDRAAKSPAGLFFQHAGHRDKVVDFHWNASDPWTIVSVSDDCETTGGGGTLQIWRMSDLIYRPEEEVVAELEKFKSHVMTCASKP

What follows are binders tested against T1, YFP-AHG1 (in transgenic Arabidopsis YFP-AHG1ox plants) (Arabidopsis) (assay: affinity purification with mass spectrometry; whole-protein extracts of 3-week-old YFP-AHG1ox (control YFPox) Arabidopsis plants, with or without 100 μM ABA, on an anti-GFP affinity column; eluted at pH 3.0; LC-MS/MS of three independent samples).

| Binder | binding |
| --- | --- |
| B1 | binds |
| B2 | binds |
| B3 | binds |
| B4 | binds |

These are yes or no findings as the source states them, for the method shown. In cells and extracts the contact can be indirect. Here binding means that the protein was enriched with, or labelled near, the bait; the list need not be complete. Tags and fused reporters may be left off the sequences shown.
